Source: patent US10196356B2, “Mixed disulfide conjugates of thienopyridine compounds and uses thereof” (The Regents of the University of Michigan, priority 2013, dated 2019)

What was measured:
[1] = Kinetics for the reduction of the mixed disulfide conjugates of clopidogrel by GSH (conversion to the AM); assay type: in vitro ADME; conditions: 1 mM GSH, cytosol
Protocol: The mixed disulfide conjugates were prepared from the reaction mixtures containing 1 mg/ml HLM, 0.1 mM 2-oxoclopidogrel, the NADPH-regenerating system and various thiol reductants and purified using SPE C18 cartridges as described in Materials and Methods. The purified conjugates were then mixed with 1 mM GSH and 0.2 mg/ml cytosol (when present). The conjugate remaining and the AM formed were analyzed using LC-MS/MS. Legend: (A) reduction of the conjugates of BME (◯), CPT (▪), NAC (▾), DFT (▴), and NPT (□) by 1 mM GSH in the presence of 0.2 mg/ml cytosol. (B) reduction of the CPT conjugate by 1 mM GSH in the presence and absence of 0.2 mg/ml cytosol. Legend: (◯), formation of AM in the absence of cytosol; (Δ), formation of the AM in the presence of cytosol; (●), reduction of the conjugate in the absence of cytosol; (▴), reduction of the conjugate in the presence of cytosol. The solid and dashed lines are non-linear curve fittings to a single exponential function.
To examine the reactivity of the mixed disulfide conjugates, the kinetics for the reduction of the mixed disulfide conjugates by GSH were determined. The mixed disulfide conjugates were generated in 1 ml of 50 mM KPi buffer (pH 7.4) buffer containing 1 mg/ml HLM, 0.1 mM 2-oxoclopidogrel and 0.3 or 1 mM thiol reductants. […] The amounts of the mixed disulfide conjugates and the AM were analyzed using LC-MS/MS as described above.

[2] = Formation of active metabolite H4 from the mixed disulfide conjugates (AM-MP derivatives, LC-MS/MS); assay type: in vitro ADME; conditions: thiol-exchange, MPB derivatisation

With `COC(=O)C(c1ccccc1Cl)N1CCC(SSc2ccc(Cl)nn2)/C(=C\C(=O)O)C1` (centres unmarked) [Clop-CPT] the “reactivity toward GSH relative to the BME conjugate” value [1] was 20 fold and the “stereoisomers of the AM released from the conjugate (H4 formation)” value (from here on “stereoisomers of the AM released”) [2] was “selective formation of the active isomer H4”.

With `COC(=O)[C@H](c1ccccc1Cl)N1CCC(SSc2cc(C)oc2C)C(=CC(=O)O)C1` (some centres unmarked) [DFT conjugate] the “reactivity toward GSH relative to the BME conjugate” value [1] was 10 fold and the “stereoisomers of the AM released” value [2] was “produced the cis isomers of the AM”.

In the case of `COC(=O)C(c1ccccc1Cl)N1CCC(SSc2ncccc2[N+](=O)[O-])C(=CC(=O)O)C1` (centres unmarked) [NPT conjugate], the “stereoisomers of the AM released” value [2] was “selective formation of the active isomer H4”.
